Construct, isoform or probe ends are uncertain for at least one entry. The comparison behind a weaker result is the experiment's own reference, which may not be listed here.
Biological target: YbiB WT (Escherichia coli BW25113) (UniProt P30177)
Experiment: EMSA
Details: 2 uM YbiB pre-mixed with ObgE, nearly complete inhibition at 1:2 ObgE/YbiB; EMSA: 20 mM HEPES pH 7.5, 150 mM NaCl, 5 mM MgCl2, 2 mM DTT, 5% glycerol, 30 min at 37 C; 6% PAGE in 1x TBE at room temperature; recombinant protein; protein details: N-terminal His6, thrombin site (pET28a); label: 5'-32P; single-stranded DNA

Protein sequences, listed by entry. Tags and fused reporters are not part of them. Lines headed by an entry give the natural chain unless they say otherwise; changes in a name come on top.
UniProt P30177: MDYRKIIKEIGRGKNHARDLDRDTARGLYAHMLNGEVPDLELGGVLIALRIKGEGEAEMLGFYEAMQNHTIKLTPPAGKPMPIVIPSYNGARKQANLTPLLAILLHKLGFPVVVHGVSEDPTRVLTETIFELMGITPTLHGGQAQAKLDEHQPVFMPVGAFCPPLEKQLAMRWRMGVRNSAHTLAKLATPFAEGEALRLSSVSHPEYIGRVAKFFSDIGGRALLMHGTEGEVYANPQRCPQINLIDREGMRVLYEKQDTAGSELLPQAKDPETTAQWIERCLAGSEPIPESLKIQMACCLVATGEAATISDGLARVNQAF

Sequence: GCTTTTGATGTACCAATGCATCACCATCACCATCAGGAAATGGGTAAGATGCTTGTAG [EMSA_probe (58-nt ssDNA)]
- binding result: binds more weakly

Reference: PMC10123104
